Experimental data taken from patent US20110262917.
The exact form of at least one protein or probe is not confirmed. For some of these results: Where cells or extracts were used, other partners may take part. For some of these results: Negatives hold for the conditions tested.

How the values were obtained:
[1] = system: Iron responsive protein (IRP), cytosolic liver extract; test: EMSA; details: protein in an extract, label: biotin
[2] = system: Iron responsive protein (IRP), HA-tagged; test: pull-down; details: 3'-biotin-PEG4-alkane cytidine bisphosphate ligated; 10 mM HEPES pH 7.3, 20 mM KCl, 1 mM MgCl2, 1 mM DTT, 10% glycerol, RT, UV cross-linked; streptavidin agarose; protein translated in vitro; label: biotin

“UCCUGCUUCAACAGUGCUUGGACGGAA [IRE RNA with alkene-linked biotin cytidine]”: no binding ([1]; 3'-biotin-linker-alkene cytidine bisphosphate ligated, ligated but no functional bandshift, variant of IRE RNA).

“UCCUGCUUCAACAGUGCUUGGACGGAA [IRE RNA with alkyne-linked biotin cytidine]”: no binding ([1]; 3'-biotin-linker-alkyne cytidine bisphosphate ligated, no functional shift, alkyne linkage reactive with liver extract, variant of IRE RNA).

UCCUGCUUCAACAGUGCUUGGACGGAA [IRE RNA]: binds ([1]; 3'-biotin-PEG4-alkane cytidine bisphosphate ligated, 10 mM HEPES pH 7.3, 20 mM KCl, 1 mM MgCl2, 1 mM DTT, tRNA, 5% glycerol, RT, unlabeled competitor tested); binds [2].
